According to the supplement of paper PMC12595434, “Development of retinoid nuclear receptor pathway antagonists through targeting aldehyde dehydrogenase 1A3” (iScience, 2025):
The list shows a part of the results. Single values of this set are uncertain.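 Many melting curves are irregular; where none melted, Tm was taken as 64 °C.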

By UniProt entry, the sequences of proteins in these tests, tags left out. Where a name states a change or a piece, a line headed by the entry shows the natural chain unless it says otherwise.
UniProt P12236: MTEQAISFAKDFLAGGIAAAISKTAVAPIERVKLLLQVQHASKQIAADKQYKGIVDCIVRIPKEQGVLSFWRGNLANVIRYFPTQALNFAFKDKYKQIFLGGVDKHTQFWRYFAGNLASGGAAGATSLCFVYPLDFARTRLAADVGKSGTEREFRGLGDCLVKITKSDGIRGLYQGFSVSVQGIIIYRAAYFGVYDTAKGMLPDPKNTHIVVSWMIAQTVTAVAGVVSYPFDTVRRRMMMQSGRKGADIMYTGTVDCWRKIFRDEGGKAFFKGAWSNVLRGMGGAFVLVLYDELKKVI
UniProt P18669: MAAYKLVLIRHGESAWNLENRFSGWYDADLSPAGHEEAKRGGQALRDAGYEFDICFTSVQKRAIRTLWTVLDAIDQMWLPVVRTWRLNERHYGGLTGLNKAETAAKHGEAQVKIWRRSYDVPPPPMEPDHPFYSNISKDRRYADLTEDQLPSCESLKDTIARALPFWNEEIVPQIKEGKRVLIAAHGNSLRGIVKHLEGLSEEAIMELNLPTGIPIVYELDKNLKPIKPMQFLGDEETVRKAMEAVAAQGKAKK
UniProt P14649: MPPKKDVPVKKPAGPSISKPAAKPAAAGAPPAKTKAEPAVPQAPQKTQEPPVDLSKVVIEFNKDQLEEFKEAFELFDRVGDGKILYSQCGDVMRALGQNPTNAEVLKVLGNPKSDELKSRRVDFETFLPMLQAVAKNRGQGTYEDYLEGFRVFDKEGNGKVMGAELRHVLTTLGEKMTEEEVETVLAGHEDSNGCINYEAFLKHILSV
UniProt P08236: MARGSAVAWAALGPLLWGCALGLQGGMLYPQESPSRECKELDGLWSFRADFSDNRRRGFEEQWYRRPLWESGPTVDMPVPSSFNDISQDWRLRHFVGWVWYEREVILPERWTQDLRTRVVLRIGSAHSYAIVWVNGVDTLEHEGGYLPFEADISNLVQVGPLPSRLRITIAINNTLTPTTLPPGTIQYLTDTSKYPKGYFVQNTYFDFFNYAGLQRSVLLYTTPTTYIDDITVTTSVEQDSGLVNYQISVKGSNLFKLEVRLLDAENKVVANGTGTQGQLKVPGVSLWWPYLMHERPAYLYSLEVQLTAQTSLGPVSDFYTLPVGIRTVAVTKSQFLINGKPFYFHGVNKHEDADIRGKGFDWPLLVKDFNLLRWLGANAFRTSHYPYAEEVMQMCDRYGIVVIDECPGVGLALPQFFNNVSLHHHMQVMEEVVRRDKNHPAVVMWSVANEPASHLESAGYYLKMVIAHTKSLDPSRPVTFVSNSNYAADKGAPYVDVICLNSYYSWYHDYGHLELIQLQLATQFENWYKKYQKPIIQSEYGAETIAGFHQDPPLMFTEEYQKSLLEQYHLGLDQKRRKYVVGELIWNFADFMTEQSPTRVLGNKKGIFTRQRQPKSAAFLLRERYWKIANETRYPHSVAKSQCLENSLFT
UniProt P13716: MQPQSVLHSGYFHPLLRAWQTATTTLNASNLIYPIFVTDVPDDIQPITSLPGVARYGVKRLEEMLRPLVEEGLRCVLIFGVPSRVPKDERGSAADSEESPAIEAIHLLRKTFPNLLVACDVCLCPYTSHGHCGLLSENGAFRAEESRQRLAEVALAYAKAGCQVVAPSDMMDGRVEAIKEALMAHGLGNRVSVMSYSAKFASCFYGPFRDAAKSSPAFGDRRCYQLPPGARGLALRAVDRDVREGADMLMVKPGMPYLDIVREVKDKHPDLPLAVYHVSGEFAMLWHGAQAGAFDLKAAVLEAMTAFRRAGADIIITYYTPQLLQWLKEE
UniProt P19022: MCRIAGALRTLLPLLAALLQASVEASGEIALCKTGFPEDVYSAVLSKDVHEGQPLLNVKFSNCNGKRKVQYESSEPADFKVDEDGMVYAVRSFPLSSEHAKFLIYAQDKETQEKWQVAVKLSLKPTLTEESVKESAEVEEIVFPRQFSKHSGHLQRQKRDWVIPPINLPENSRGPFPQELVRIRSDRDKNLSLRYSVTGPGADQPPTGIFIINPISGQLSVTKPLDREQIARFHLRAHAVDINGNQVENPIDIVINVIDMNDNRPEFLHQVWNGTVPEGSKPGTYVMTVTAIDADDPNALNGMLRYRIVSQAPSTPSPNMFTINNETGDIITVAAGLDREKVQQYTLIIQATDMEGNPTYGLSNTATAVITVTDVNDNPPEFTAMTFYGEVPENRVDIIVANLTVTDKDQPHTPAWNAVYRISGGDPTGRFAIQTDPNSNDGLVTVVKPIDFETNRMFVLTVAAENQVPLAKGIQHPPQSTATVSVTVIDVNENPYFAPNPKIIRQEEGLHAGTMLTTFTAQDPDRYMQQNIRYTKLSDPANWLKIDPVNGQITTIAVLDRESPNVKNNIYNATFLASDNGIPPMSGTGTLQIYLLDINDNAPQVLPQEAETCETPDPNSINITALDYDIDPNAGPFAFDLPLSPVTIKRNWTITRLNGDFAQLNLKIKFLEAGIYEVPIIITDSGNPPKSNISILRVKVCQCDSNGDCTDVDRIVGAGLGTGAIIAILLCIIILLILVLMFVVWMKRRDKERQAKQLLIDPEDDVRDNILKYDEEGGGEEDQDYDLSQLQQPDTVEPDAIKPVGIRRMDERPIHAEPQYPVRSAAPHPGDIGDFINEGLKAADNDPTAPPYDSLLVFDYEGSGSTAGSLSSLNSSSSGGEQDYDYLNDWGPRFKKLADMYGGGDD
UniProt P08138: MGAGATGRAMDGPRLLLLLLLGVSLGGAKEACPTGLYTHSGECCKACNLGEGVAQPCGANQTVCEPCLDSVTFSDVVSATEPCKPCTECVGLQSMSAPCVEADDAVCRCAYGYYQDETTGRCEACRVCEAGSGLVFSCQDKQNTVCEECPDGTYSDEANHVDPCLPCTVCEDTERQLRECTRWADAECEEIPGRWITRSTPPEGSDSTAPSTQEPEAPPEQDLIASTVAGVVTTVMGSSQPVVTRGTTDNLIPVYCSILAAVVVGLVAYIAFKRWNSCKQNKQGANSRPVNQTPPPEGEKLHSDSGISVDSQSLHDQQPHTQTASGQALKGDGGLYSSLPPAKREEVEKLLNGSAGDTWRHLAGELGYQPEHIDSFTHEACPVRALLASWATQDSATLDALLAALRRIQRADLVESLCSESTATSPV
UniProt P15311, whole entry: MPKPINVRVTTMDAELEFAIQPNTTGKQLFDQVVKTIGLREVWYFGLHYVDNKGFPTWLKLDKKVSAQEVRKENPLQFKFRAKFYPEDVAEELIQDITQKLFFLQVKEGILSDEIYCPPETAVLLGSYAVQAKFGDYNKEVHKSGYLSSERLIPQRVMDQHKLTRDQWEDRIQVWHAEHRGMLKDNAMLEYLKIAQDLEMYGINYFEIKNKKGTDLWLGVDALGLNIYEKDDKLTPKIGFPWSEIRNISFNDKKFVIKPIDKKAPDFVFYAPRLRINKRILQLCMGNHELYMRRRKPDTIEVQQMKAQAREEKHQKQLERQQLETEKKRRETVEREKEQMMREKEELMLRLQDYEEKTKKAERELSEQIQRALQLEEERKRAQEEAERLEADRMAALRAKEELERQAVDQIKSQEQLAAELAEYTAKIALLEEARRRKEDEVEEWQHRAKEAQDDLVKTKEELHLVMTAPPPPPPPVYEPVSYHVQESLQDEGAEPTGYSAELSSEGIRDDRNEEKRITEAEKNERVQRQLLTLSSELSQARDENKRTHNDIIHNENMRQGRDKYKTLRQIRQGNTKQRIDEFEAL
UniProt P16260: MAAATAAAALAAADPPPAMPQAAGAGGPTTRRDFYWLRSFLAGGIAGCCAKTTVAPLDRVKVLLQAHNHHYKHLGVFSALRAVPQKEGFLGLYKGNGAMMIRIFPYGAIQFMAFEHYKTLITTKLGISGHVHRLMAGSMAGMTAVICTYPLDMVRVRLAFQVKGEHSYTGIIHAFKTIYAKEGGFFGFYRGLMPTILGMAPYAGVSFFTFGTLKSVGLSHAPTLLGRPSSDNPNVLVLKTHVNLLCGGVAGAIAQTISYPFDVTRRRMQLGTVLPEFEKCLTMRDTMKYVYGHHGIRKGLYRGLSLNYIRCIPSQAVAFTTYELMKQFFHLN
UniProt P07711: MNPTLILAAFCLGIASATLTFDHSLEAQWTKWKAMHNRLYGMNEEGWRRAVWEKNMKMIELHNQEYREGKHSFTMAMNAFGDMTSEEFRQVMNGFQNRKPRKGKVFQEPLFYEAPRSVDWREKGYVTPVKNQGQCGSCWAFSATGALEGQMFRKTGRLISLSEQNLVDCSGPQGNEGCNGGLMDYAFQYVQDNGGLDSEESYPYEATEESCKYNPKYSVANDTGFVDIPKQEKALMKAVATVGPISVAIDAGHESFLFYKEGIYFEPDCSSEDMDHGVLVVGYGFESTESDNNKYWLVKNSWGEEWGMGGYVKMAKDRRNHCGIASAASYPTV
UniProt P15289: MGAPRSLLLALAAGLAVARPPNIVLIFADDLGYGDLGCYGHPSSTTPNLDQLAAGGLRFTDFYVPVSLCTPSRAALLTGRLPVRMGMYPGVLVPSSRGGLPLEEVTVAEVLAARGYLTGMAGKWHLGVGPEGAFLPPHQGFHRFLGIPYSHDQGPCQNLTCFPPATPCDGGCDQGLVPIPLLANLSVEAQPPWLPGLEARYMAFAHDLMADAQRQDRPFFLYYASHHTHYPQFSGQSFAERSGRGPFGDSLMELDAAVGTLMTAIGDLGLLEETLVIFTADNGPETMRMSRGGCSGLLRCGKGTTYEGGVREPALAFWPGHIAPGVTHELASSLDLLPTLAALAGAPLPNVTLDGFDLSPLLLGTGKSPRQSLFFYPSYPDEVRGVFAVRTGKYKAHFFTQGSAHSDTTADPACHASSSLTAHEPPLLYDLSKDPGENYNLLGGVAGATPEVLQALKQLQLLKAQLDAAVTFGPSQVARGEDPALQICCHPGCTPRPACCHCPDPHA
UniProt P17676: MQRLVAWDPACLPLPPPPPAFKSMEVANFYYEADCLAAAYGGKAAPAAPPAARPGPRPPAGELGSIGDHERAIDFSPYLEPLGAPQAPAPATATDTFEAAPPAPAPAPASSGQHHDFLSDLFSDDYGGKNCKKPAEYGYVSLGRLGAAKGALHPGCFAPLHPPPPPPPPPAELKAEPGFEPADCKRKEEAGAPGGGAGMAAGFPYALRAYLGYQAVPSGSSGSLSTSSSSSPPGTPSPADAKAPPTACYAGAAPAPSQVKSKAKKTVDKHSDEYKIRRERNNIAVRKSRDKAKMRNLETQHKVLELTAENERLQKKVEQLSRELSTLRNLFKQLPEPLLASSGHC
UniProt P0C870: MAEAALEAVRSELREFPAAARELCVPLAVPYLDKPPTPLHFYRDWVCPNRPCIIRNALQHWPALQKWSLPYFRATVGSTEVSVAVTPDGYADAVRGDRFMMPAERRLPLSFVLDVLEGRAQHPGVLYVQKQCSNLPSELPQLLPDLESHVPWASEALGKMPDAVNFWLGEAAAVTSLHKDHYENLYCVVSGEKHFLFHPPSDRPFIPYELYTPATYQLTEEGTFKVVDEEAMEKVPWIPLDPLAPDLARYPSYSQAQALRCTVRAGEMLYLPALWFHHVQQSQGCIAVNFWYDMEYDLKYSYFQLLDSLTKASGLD
UniProt P16070: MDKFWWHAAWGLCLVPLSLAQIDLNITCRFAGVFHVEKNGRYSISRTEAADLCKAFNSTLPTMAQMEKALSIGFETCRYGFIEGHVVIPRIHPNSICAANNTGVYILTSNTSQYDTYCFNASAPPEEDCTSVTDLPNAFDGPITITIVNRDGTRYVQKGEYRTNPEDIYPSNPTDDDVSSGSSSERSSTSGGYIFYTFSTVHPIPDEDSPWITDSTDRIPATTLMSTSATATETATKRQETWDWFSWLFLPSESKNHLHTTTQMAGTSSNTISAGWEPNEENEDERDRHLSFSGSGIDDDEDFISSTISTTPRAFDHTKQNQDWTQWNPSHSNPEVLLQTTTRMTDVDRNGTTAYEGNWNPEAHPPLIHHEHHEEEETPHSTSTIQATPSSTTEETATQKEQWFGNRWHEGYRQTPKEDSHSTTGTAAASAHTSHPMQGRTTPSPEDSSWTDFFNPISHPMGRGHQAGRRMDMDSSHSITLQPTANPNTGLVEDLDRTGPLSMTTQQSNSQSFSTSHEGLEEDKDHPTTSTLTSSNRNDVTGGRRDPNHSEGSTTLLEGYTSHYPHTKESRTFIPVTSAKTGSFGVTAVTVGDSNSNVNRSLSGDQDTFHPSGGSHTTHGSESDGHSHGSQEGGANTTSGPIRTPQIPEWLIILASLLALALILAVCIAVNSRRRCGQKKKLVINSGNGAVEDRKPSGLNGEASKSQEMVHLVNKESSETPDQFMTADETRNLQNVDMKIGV
UniProt P07108: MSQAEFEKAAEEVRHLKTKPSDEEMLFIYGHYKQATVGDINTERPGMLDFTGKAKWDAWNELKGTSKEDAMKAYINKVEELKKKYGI
UniProt P13498: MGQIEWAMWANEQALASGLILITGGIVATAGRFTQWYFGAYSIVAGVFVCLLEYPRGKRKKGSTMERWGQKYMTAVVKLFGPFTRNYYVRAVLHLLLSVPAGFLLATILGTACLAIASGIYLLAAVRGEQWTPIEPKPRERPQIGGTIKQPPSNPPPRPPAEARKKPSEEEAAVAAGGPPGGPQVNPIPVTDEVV

Compound: CCc1cnccc1C(=O)Nc1cc2c(cc1F)NC(=O)CC2
Assay: melting temperature shift (DMSO Tm minus MBE1-treated Tm) in cellular thermal proteome profiling; higher = less thermal stabilization by MBE1 (negative = stabilized by MBE1)
Details: A375

Row | Target | melting temperature shift (MBE1 concentration: 1 uM) [°C] | melting temperature shift (MBE1 concentration: 100 nM) [°C]
1 | PVR (UniProt P15151) | 0 | –
2 | SLC25A6 (UniProt P12236) | -0.287 | –
3 | UniProt P16144 | 0.852 | -0.885
4 | SLC25A4 (UniProt P12235) | 1.95 | –
5 | UniProt P09488 | 0.427 | -0.727
6 | PGAM1 (UniProt P18669) | -0.577 | -0.935
7 | MYL6B (UniProt P14649) | 1.45 | -3.2
8 | GUSB (UniProt P08236) | -3.64 | –
9 | NFIC (UniProt P08651) | -3.7 | –
10 | CKMT1A (UniProt P12532) | 1.62 | -0.227
11 | ALAD (UniProt P13716) | -3.33 | –
12 | UniProt P19022 | -3.03 | –
13 | UniProt P08138 | -3.14 | –
14 | EZR (UniProt P15311) | -0.116 | -0.248
15 | UniProt P16260 | 2.21 | -2.09
16 | TRIM21 (UniProt P19474) | 0.055 | -0.825
17 | CTSL (UniProt P07711) | -1.04 | -1.64
18 | ARSA (UniProt P15289) | -2.82 | 0
19 | Q95604 (UniProt P10321) | -3.34 | –
20 | CEBPB (UniProt P17676) | -0.78 | –
21 | AKR1B1 (UniProt P15121) | 0.649 | -0.953
22 | UniProt P0C870 | 1.35 | –
23 | CALM1 (UniProt P0DP23) | -4.64 | –
24 | UniProt P19419 | – | -0.784
25 | CD44 (UniProt P16070) | 0 | –
26 | PFKL (UniProt P17858) | -2.03 | -2.5
27 | DBI (UniProt P07108) | -3.55 | –
28 | RPL7 (UniProt P18124) | 0.366 | -0.0794
29 | CYBA (UniProt P13498) | 0.402 | –

Looked up above.
UniProt P16260 | melting temperature shift (MBE1 concentration: 100 nM) [°C]: -2.09
PVR (UniProt P15151) | melting temperature shift (MBE1 concentration: 1 uM) [°C]: 0
